# In US20130253058A1, “SATIETY-INDUCING COMPOSITION” (DSM IP ASSETS B.V., priority 2009, published 2013):
# Assay: TNO Intestinal Model (TIM), Example 3: light microscopy of crystals in jejunum and ileum lumen
# Assay type: in vitro ADME
# Conditions: yoghurt with 3.5% lipids
smiles,measurement,setting,value
CCCCCCCCCCCCCCCC(=O)O [Palmitic acid],"amount of crystals by light microscopy, Jejunum lumen",60 min after insertion of yoghurt in the stomach compartment,++ (++: many (>10) crystals in most or all of the images)
same,"amount of crystals by light microscopy, Ileum lumen",120 min after insertion of yoghurt in the stomach compartment,"+ (+: few crystals (max 10), in some or most of the images)"
same,"amount of crystals by light microscopy, Jejunum lumen",180 min after insertion of yoghurt in the stomach compartment,++ (++: many (>10) crystals in most or all of the images)
same,"amount of crystals by light microscopy, Ileum lumen",240 min after insertion of yoghurt in the stomach compartment,"+ (+: few crystals (max 10), in some or most of the images)"
